Measured values reported in article PMC12244780.
These are yes or no findings as the source states them, for the method shown. In cells and extracts the contact can be indirect. A yes stands for co-enrichment or nearness to the bait. Other partners may have been found. Sequences can lack the tags named with a protein.

Amino acid sequences for entries named in this document (tags omitted).
UniProt O75369: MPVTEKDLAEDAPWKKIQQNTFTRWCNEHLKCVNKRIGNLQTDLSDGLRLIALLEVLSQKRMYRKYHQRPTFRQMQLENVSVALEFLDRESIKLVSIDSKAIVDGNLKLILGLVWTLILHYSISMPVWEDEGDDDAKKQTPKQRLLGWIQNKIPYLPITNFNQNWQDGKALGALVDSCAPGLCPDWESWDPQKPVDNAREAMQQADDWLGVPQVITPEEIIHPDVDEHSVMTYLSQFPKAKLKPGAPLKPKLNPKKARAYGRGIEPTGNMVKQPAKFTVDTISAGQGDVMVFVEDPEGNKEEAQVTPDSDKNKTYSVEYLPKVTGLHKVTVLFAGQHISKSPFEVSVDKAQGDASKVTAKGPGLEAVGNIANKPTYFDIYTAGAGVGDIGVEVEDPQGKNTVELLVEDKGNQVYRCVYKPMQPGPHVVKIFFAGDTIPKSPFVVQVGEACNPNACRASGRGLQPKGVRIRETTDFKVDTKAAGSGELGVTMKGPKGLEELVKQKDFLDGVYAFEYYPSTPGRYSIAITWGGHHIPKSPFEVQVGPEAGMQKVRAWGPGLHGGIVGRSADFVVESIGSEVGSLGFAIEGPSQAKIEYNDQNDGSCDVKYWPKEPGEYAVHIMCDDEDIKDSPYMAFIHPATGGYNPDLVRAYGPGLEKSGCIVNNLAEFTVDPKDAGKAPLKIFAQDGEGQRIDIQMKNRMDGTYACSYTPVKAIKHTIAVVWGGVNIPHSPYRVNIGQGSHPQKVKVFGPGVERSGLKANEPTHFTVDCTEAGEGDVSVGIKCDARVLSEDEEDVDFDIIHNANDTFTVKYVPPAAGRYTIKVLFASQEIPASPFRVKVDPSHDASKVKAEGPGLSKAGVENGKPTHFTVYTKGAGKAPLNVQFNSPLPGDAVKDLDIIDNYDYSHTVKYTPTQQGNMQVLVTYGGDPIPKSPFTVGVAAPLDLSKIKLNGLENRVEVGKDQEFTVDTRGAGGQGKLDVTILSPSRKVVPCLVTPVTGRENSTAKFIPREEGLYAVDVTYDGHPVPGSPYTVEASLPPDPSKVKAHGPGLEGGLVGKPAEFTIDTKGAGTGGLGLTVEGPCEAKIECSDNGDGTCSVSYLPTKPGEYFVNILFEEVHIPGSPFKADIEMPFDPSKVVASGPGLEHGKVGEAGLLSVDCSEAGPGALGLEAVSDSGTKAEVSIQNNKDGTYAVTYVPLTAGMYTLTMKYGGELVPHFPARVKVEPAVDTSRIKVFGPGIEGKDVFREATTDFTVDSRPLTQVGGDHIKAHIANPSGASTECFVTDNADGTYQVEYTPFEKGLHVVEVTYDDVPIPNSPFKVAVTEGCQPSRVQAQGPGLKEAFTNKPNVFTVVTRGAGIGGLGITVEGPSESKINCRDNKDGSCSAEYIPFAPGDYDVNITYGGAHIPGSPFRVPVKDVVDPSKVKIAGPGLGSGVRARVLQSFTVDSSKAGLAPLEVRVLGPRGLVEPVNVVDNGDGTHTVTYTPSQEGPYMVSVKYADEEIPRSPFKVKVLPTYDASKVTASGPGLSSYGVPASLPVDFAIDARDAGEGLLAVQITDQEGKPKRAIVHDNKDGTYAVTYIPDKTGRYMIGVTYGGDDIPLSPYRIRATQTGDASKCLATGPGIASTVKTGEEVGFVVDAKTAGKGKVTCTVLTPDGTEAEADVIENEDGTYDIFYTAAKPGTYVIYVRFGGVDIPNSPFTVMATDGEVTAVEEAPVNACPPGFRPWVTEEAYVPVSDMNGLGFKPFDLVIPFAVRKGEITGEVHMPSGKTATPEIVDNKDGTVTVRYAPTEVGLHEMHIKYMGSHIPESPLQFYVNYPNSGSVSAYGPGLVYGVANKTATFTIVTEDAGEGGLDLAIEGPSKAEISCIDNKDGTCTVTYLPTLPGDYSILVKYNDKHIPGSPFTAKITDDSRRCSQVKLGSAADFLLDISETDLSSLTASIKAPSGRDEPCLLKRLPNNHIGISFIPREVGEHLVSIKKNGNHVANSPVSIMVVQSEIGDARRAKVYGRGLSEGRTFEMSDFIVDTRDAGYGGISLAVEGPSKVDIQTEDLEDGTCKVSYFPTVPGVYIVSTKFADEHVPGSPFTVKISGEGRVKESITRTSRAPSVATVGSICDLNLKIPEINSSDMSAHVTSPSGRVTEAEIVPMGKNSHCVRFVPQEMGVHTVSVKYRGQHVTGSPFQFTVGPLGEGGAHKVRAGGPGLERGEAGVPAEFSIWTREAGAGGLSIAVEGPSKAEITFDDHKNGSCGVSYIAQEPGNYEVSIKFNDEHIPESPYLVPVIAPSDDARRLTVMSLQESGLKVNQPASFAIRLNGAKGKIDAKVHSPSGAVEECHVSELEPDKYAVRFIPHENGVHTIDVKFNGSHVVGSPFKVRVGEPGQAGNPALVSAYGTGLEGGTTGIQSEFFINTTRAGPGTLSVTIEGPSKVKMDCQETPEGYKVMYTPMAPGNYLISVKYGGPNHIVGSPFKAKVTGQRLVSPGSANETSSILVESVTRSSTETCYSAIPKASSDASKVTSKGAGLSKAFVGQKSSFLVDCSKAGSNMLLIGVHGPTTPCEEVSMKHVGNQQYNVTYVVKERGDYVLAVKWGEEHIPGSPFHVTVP

Molecular target: T1, Flag-MTMR7 (myotubularin-related protein 7) (UniProt Q9Y216)
T1 sequence: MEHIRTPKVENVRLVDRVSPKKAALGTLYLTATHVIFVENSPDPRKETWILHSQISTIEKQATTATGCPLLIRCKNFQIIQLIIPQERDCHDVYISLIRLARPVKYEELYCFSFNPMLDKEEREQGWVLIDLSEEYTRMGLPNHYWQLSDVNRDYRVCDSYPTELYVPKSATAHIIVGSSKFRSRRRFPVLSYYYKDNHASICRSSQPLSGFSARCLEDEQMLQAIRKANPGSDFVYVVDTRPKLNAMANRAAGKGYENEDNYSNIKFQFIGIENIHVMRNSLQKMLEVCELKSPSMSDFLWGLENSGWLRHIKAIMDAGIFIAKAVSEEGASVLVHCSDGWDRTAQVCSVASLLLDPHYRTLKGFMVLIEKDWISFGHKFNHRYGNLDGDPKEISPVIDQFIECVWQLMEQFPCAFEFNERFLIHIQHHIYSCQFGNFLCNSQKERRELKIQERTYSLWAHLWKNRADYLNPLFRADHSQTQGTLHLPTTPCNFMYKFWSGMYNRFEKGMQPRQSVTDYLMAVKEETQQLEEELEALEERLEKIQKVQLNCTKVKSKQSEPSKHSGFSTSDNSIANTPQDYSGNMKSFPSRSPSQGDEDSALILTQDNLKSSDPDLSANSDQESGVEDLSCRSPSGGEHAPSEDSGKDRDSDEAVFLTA
Assay: affinity purification with mass spectrometry; lysate of SSCs transfected with Flag-MTMR7 or empty vector; pre-cleared with protein A/G magnetic beads; anti-Flag magnetic beads overnight at 4°C; washed with PBS and RIPA; PAGE, in-gel digestion, LC-MS/MS

Q: Which binding does the source give for “filamin B (FLNB) (from UniProt O75369 1-2602)” here?
A: The binding was “binds”.
